In PubChem BioAssay AID186 (DTP/NCI, 2004):
Shown are survivors of the treated group in tumour-free mice. Counts of survivors are from the toxicity check (mostly the fifth day) where no day follows; animals may have died later. Schedule codes are those of the source, read here as Q, the interval in days (D) or hours (H), X, the number of doses. Some doses were run more than once; their values stand side by side, smallest first.

Test system: B6D2F1 mice, nontumored toxicity test, survival
Test: NCI In Vivo Anticancer Drug Screen. Data for tumor model Nontumored Animals (Toxicity Test) in B6D2F1 (BDF1) mice

O=c1[nH]cc(F)c(=O)[nH]1
survivor count (dose: 2.0 mg/kg/injection, schedule: Q01DX009 (ip), vehicle: water): 6 of 6 | survivor count (dose: 2.0 mg/kg/injection, schedule: Q03HX016 (ip), vehicle: water): 6 of 6 | survivor count (dose: 2.0 mg/kg/injection, schedule: Q03HX024 (ip), vehicle: water): 6 of 6 | survivor count (dose: 2.5 mg/kg/injection, schedule: Q01DX009 (ip), vehicle: saline): 5 of 5 | survivor count (dose: 2.5 mg/kg/injection, schedule: Q01DX017 (ip), vehicle: saline): 8 of 8 | survivor count (dose: 4.0 mg/kg/injection, schedule: Q01DX009 (ip), vehicle: water): 6 of 6 | survivor count (dose: 4.0 mg/kg/injection, schedule: Q03HX016 (ip), vehicle: water): 6 of 6 | survivor count (dose: 4.0 mg/kg/injection, schedule: Q03HX024 (ip), vehicle: water): 6 of 6 | survivor count (dose: 5.0 mg/kg/injection, schedule: Q01DX009 (ip), vehicle: saline): 5 of 5 and 8 of 8 | survivor count (dose: 5.0 mg/kg/injection, schedule: Q01DX017 (ip), vehicle: saline): 8 of 8 | survivor count (dose: 7.0 mg/kg/injection, schedule: Q01DX009 (ip), vehicle: saline): 5 of 5 | survivor count (dose: 8.0 mg/kg/injection, schedule: Q01DX009 (ip), vehicle: water): 6 of 6 | survivor count (dose: 8.0 mg/kg/injection, schedule: Q03HX016 (ip), vehicle: water): 6 of 6 | survivor count (dose: 8.0 mg/kg/injection, schedule: Q03HX024 (ip), vehicle: water): 6 of 6 | survivor count (dose: 8.0 mg/kg/injection, schedule: Q04DX003 (ip), vehicle: water): 6 of 6 | survivor count (dose: 9.22 mg/kg/injection, schedule: Q01DX032 (other), vehicle: saline): 6 of 6 | survivor count (dose: 10.0 mg/kg/injection, schedule: Q01DX009 (ip), vehicle: saline): 5 of 5 and 8 of 8 | survivor count (dose: 10.0 mg/kg/injection, schedule: Q01DX017 (ip), vehicle: saline): 8 of 8 | survivor count (dose: 11.3 mg/kg/injection, schedule: Q01DX012 (sc), vehicle: other): 6 of 6 | survivor count (dose: 11.5 mg/kg/injection, schedule: Q01DX016 (other), vehicle: saline): 6 of 6 | survivor count (dose: 11.5 mg/kg/injection, schedule: Q01DX032 (other), vehicle: saline): 6 of 6 | survivor count (dose: 12.0 mg/kg/injection, schedule: Q01DX009 (ip), vehicle: saline): 5 of 5 | survivor count (dose: 12.5 mg/kg/injection, schedule: Q04DX005 (ip), vehicle: saline): 8 of 8 | survivor count (dose: 14.1 mg/kg/injection, schedule: Q01DX012 (sc), vehicle: other): 6 of 6 | survivor count (dose: 14.4 mg/kg/injection, schedule: Q01DX012 (other), vehicle: saline): 6 of 6 | survivor count (dose: 14.4 mg/kg/injection, schedule: Q01DX016 (other), vehicle: saline): 6 of 6 | survivor count (dose: 14.4 mg/kg/injection, schedule: Q01DX032 (other), vehicle: saline): 6 of 6 | survivor count (dose: 15.0 mg/kg/injection, schedule: Q01DX009 (ip), vehicle: saline): 10 of 10 | survivor count (dose: 16.0 mg/kg/injection, schedule: Q01DX009 (ip), vehicle: water): 6 of 6 | survivor count (dose: 16.0 mg/kg/injection, schedule: Q03HX016 (ip), vehicle: water): 6 of 6 | survivor count (dose: 16.0 mg/kg/injection, schedule: Q03HX024 (ip), vehicle: water): 6 of 6 | survivor count (dose: 16.0 mg/kg/injection, schedule: Q04DX003 (ip), vehicle: water): 6 of 6 | survivor count (dose: 17.6 mg/kg/injection, schedule: Q01DX012 (sc), vehicle: other): 6 of 6 | survivor count (dose: 18.0 mg/kg/injection, schedule: Q01DX012 (other), vehicle: saline): 6 of 6 | survivor count (dose: 18.0 mg/kg/injection, schedule: Q01DX016 (other), vehicle: saline): 6 of 6 | survivor count (dose: 18.0 mg/kg/injection, schedule: Q01DX032 (other), vehicle: saline): 6 of 6 | survivor count (dose: 20.0 mg/kg/injection, schedule: Q01DX009 (ip), vehicle: saline): 10 of 10, 5 of 5, 8 of 8 | survivor count (dose: 20.0 mg/kg/injection, schedule: Q01DX017 (ip), vehicle: saline): 8 of 8 | survivor count (dose: 22.0 mg/kg/injection, schedule: Q01DX012 (sc), vehicle: other): 6 of 6 | survivor count (dose: 22.5 mg/kg/injection, schedule: Q01DX008 (other), vehicle: saline): 6 of 6 | survivor count (dose: 22.5 mg/kg/injection, schedule: Q01DX012 (other), vehicle: saline): 6 of 6 | survivor count (dose: 22.5 mg/kg/injection, schedule: Q01DX016 (other), vehicle: saline): 6 of 6 | survivor count (dose: 22.5 mg/kg/injection, schedule: Q01DX032 (other), vehicle: saline): 6 of 6 | survivor count (dose: 25.0 mg/kg/injection, schedule: Q01DX009 (ip), vehicle: saline): 10 of 10 | survivor count (dose: 25.0 mg/kg/injection, schedule: Q04DX003 (ip), vehicle: saline): 8 of 8 | survivor count (dose: 25.0 mg/kg/injection, schedule: Q04DX005 (ip), vehicle: saline): 8 of 8 | survivor count (dose: 27.5 mg/kg/injection, schedule: Q01DX005 (sc), vehicle: other): 6 of 6 | survivor count (dose: 27.5 mg/kg/injection, schedule: Q01DX012 (sc), vehicle: other): 6 of 6 | survivor count (dose: 28.1 mg/kg/injection, schedule: Q01DX008 (other), vehicle: saline): 6 of 6 | survivor count (dose: 28.1 mg/kg/injection, schedule: Q01DX012 (other), vehicle: saline): 6 of 6 | survivor count (dose: 28.1 mg/kg/injection, schedule: Q01DX016 (other), vehicle: saline): 6 of 6 | survivor count (dose: 28.1 mg/kg/injection, schedule: Q01DX032 (other), vehicle: saline): 6 of 6 | survivor count (dose: 30.0 mg/kg/injection, schedule: Q01DX009 (ip), vehicle: saline): 10 of 10 | survivor count (dose: 32.0 mg/kg/injection, schedule: Q01DX009 (ip), vehicle: water): 6 of 6 | survivor count (dose: 32.0 mg/kg/injection, schedule: Q03HX016 (ip), vehicle: water): 6 of 6 | survivor count (dose: 32.0 mg/kg/injection, schedule: Q04DX003 (ip), vehicle: water): 6 of 6 | survivor count (dose: 33.3 mg/kg/injection, schedule: Q01DX009 (ip), vehicle: saline): 5 of 5 | survivor count (dose: 34.4 mg/kg/injection, schedule: Q01DX005 (sc), vehicle: other): 6 of 6 | survivor count (dose: 35.2 mg/kg/injection, schedule: Q01DX006 (other), vehicle: saline): 6 of 6 | survivor count (dose: 35.2 mg/kg/injection, schedule: Q01DX008 (other), vehicle: saline): 6 of 6 | survivor count (dose: 35.2 mg/kg/injection, schedule: Q01DX012 (other), vehicle: saline): 6 of 6 | survivor count (dose: 35.2 mg/kg/injection, schedule: Q01DX016 (other), vehicle: saline): 6 of 6 | survivor count (dose: 35.2 mg/kg/injection, schedule: Q01DX032 (other), vehicle: saline): 6 of 6 | survivor count (dose: 40.0 mg/kg/injection, schedule: Q01DX009 (ip), vehicle: saline): 5 of 5 and 8 of 8 | survivor count (dose: 42.9 mg/kg/injection, schedule: Q01DX005 (sc), vehicle: other): 6 of 6 | survivor count (dose: 44.0 mg/kg/injection, schedule: Q01DX006 (other), vehicle: saline): 6 of 6 | survivor count (dose: 44.0 mg/kg/injection, schedule: Q01DX008 (other), vehicle: saline): 6 of 6 | survivor count (dose: 44.0 mg/kg/injection, schedule: Q01DX012 (other), vehicle: saline): 6 of 6 | survivor count (dose: 44.0 mg/kg/injection, schedule: Q01DX016 (other), vehicle: saline): 6 of 6 | survivor count (dose: 44.0 mg/kg/injection, schedule: Q01DX032 (other), vehicle: saline): 6 of 6 | survivor count (dose: 50.0 mg/kg/injection, schedule: Q01DX001 (ip), vehicle: saline): 8 of 8
